What all share (assay): co-IP
For assay [1], the target named is mCherry-PICK1 WT (mouse) (UniProt Q62083).
Assay [2] addresses mGFP-PICK1 WT (mouse) (UniProt Q62083).
Assay [3] deals with mGFP-KIBRA WT (mouse) (UniProt Q5SXA9).
The target of assay [4] is mGFP-PICK1 WT (mouse) (UniProt Q62083). This is another data set of the same source.
For assay [5], the target named is mCherry-KIBRA WT (mouse) (UniProt Q5SXA9).
Assay [6] shares this target. This is another data set of the same source.

Chains of the proteins cited; added tags and fusions are not shown. Residues count along the entry.
UniProt Q62083: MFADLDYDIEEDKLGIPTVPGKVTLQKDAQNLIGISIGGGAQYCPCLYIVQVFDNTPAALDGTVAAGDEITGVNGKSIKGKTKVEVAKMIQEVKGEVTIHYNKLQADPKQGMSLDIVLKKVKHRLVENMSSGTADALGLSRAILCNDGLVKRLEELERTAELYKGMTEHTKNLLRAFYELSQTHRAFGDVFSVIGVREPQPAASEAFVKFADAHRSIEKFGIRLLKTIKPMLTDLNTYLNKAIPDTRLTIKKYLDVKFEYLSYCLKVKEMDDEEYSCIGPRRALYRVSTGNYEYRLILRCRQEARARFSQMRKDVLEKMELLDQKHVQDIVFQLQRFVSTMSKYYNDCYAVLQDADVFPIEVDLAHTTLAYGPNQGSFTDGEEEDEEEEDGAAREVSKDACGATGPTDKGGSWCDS
UniProt Q5SXA9: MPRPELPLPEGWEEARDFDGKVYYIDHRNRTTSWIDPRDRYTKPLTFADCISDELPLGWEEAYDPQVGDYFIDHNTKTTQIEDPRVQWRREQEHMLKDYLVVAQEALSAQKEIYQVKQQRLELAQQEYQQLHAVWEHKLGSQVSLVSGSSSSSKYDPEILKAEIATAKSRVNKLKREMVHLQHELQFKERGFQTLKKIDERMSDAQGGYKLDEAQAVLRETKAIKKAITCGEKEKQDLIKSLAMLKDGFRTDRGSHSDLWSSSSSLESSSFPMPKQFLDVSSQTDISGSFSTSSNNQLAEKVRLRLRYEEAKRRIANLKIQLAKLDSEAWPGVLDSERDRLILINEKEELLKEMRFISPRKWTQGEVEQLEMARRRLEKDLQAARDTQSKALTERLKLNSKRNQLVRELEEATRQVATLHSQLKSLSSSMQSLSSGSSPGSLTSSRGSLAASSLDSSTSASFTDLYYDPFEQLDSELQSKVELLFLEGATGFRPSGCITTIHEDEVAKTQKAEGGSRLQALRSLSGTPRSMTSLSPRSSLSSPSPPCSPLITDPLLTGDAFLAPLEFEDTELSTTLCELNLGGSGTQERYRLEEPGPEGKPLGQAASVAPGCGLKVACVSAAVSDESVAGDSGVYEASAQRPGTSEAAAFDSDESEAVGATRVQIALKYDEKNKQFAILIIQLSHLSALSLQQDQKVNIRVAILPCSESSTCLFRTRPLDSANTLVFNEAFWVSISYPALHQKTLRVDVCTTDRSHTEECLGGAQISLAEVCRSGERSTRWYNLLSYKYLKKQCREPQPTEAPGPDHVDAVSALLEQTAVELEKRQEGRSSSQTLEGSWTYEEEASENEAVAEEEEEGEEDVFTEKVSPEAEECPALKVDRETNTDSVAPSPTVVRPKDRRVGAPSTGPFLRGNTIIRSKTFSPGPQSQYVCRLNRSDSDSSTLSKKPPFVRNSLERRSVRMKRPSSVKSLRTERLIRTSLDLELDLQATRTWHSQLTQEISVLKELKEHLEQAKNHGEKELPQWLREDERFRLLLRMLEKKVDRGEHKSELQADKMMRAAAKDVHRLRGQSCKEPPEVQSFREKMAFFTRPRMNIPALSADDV
UniProt P19491, residues 22-883: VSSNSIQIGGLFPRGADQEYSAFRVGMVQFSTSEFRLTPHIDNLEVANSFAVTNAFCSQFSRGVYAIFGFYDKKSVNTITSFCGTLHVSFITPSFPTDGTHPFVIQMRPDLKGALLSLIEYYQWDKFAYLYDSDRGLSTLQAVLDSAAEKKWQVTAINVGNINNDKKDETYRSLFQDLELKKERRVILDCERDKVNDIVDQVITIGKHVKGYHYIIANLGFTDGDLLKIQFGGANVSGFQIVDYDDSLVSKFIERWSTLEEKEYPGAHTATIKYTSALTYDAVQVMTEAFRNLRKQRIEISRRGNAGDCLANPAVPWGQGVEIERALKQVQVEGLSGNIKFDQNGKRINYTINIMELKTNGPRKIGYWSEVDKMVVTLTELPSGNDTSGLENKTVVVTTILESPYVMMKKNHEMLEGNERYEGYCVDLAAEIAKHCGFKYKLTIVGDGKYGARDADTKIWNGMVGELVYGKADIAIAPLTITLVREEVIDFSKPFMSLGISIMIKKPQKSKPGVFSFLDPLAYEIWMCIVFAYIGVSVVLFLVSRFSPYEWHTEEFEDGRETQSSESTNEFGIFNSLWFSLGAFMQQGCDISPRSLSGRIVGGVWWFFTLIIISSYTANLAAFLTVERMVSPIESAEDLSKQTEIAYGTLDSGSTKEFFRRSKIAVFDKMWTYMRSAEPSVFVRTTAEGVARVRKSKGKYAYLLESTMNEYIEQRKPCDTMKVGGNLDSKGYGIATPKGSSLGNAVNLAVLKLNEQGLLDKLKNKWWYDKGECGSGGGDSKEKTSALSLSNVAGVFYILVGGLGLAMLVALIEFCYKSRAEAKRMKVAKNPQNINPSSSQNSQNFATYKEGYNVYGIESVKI

Like-named read-outs stand apart in the source and are kept apart here. No constants are given. Whether binding was seen depends on the method and setting. Binding seen in cells or lysates may run through a third protein. Some binding calls cover weakened binding; strength is not graded here.

The values that follow come from publication doi:10.1101/2024.03.12.584494.

Regarding “Myc-KIBRA WT (from UniProt Q5SXA9 1-1104)”, in assay [1], the binding result is “binds”. On to “mCherry-KIBRA WT (from UniProt Q5SXA9 1-1104)”, for which, in assay [2], the binding result was “binds”. In the case of “mGFP-KIBRA WT (from UniProt Q5SXA9 1-1104)”, the binding result in assay [3] and in assay [1] was “binds” each time. Consider “Myc-GluA2 (from UniProt P19491 22-883) (receptor)”, for which the binding entry in assay [4] and in assay [2] was “binds” each time.

Take “mGFP-PICK1 WT (from UniProt Q62083 1-416)”: the binding result in assay [5] and in assay [6] was “binds” throughout.
